## Screening data

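Fluorescent reporter signals from normal-ribosome and human-like mutant-ribosome bacteria, measured on a plate reader at 24 h.
The value is the change in activity at the top tested concentration; more negative means stronger inhibition.
Active means the normal-ribosome signal drops at least twice as much as the mutant signal without a large loss of growth; inconclusive means no clear call.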

All entries here are filed as inconclusive.
Only part of the assay is shown, chiefly results filed as inconclusive.

structure: C[C@@H]1CCCCO[C@H](CN(C)C(=O)CCCN(C)C)[C@@H](C)CN([C@H](C)CO)C(=O)c2cc(NC(=O)Nc3cccc4ccccc34)ccc2O1
condition: at 50 µM (top of the series)
activity change: 49.3

structure: COc1ccc(C(=O)n2cnc3ccccc32)cc1[N+](=O)[O-]
condition: at 50 µM (top of the series)
activity change: 25.12

structure: O=C(Nc1ccc2c(c1)OCO2)c1cccc(S(=O)(=O)N2CCCC2)c1
condition: at 50 µM (top of the series)
activity change: -22.71

structure: CC(=O)Nc1cccc2c1Cc1cc([N+](=O)[O-])ccc1-2
condition: at 50 µM (top of the series)
activity change: -12.41

structure: CCC(CO)Oc1cc(NC(=O)c2ccccc2F)c2ncn(C(C)C)c2c1 (configuration not stated)
condition: at 50 µM (top of the series)
activity change: 12.12

structure: CCn1c(CNC(=O)c2ccccc2F)cc2cc(C)ccc21
condition: at 50 µM (top of the series)
activity change: -16.81

structure: Clc1ccc(-c2cn(-c3ccccc3)c3[n+]2CCS3)cc1
condition: at 50 µM (top of the series)
activity change: -31.24

structure: C[C@H](CO)N1C[C@H](C)[C@H](CN(C)C)OCCCC[C@H](C)Oc2ccc(NC(=O)Nc3cccc4ccccc34)cc2C1=O
condition: at 50 µM (top of the series)
activity change: -5.754

structure: Cc1ccccc1-c1ccc([C@@H]2[C@@H](CO)N3CCCCN(C(=O)Nc4ccc(F)cc4)C[C@@H]23)cc1
condition: at 50 µM (top of the series)
activity change: -83.3

structure: Nc1ncncc1-c1ccc(Cl)cc1
condition: at 50 µM (top of the series)
activity change: -18.84

structure: Cc1cc(C(=O)c2ccc3ccccc3c2)c(C)o1
condition: at 50 µM (top of the series)
activity change: -18.88

structure: COc1ccc(OCCC(=O)OCC(=O)NCCC2=CCCCC2)cc1
condition: at 50 µM (top of the series)
activity change: -1.932

structure: COc1ccc(NC(=O)c2cccs2)cc1C(=O)N1CCN(c2ccccc2)CC1
condition: at 50 µM (top of the series)
activity change: -18.76

structure: O=C(C[n+]1cc(-c2ccc(F)cc2)n2c1CCC2)c1cccs1
condition: at 50 µM (top of the series)
activity change: 24.53

structure: CN(C(=O)c1ccc(F)cc1)c1ccc(OCC(=O)Nc2ccccc2C(=O)O)cc1
condition: at 50 µM (top of the series)
activity change: -22.41

structure: Cc1cc(F)ccc1-c1cc(C(=O)NCC2CCCCC2)[nH]n1
condition: at 50 µM (top of the series)
activity change: -60.4

structure: O=C(Nc1cccc(Cl)c1)N1C[C@@H]2[C@H](c3ccccc31)[C@H](CO)N2C(=O)c1cccnc1
condition: at 50 µM (top of the series)
activity change: -34.7

structure: N#Cc1nc(Cc2ccccc2)oc1N1CCCC1
condition: at 50 µM (top of the series)
activity change: 2.652

structure: COc1ccc(NC(=O)C2CC3C=CC2C3)c([N+](=O)[O-])c1 (configuration not stated)
condition: at 50 µM (top of the series)
activity change: 1.492

structure: COc1ccc(-c2csc(N)n2)cc1F
condition: at 50 µM (top of the series)
activity change: 16.83

structure: Cc1cc(C(=O)Nc2cccc3c2O[C@H](CN(C)S(=O)(=O)c2ccc(Cl)cc2)[C@H](C)CN([C@@H](C)CO)C3=O)n(C)n1
condition: at 50 µM (top of the series)
activity change: -13.46

structure: CN1CCN(CC(=O)c2cc(C(C)(C)C)c(O)c(C(C)(C)C)c2)CC1
condition: at 50 µM (top of the series)
activity change: -34.23

structure: CC(C)CN1C(=O)c2ccc(C(=O)Nc3ccncc3)cc2C1=O
condition: at 50 µM (top of the series)
activity change: -11.2

structure: COC(=O)c1ccc(OS(=O)(=O)c2ccc(NC(C)=O)cc2)cc1
condition: at 50 µM (top of the series)
activity change: -17.78

structure: O=C(COC(=O)c1ccccc1O)NCCC1=CCCCC1
condition: at 50 µM (top of the series)
activity change: -18.12

structure: Cc1nn(C)cc1NC(=O)C[C@@H]1CC[C@@H]2[C@@H](COc3ccc(NC(=O)C4CCC4)cc3C(=O)N2C)O1
condition: at 50 µM (top of the series)
activity change: 36.32

structure: O=C(Nc1nnc(Cc2ccc(Cl)cc2)s1)c1ccncc1
condition: at 50 µM (top of the series)
activity change: -27.39

structure: CC(C)CC#Cc1ccc([C@@H]2[C@@H](CO)N3C(=O)CN(C(=O)Cc4ccccc4)C[C@@H]23)cc1
condition: at 50 µM (top of the series)
activity change: -19.7

Data taken from PubChem BioAssay AID1035470, deposited by Broad Institute (2014).